# In the supplement of paper PMC9135407:
# Where “and” joins values, the source holds several entries; their conditions need not be identical. Equal entries are not always repeated. Structures can show the parent of a compound that is named as a salt. ± gives the standard deviation of the averaged measurements. This is one part of the list. Baselines shift from plate to plate; read single values as rough.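 Assay uses culture-activated primary human stellate myofibroblasts; lipid droplet recovery indicates inactivation. Measured: proportion of Hoechst-counted cells over a plate-specific Bodipy cutoff, duplicate wells, DMSO and nortriptyline as per-plate negative and positive controls. A hit scores, control-normalized, above the plate's top-tenth-percentile nortriptyline wells or ranks among its three best wells. Final well concentrations not reported.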
# Tested on: primary human hepatic stellate cells (donor 1)
# Experiment: percent Bodipy-positive cells; higher = more lipid droplet accumulation
# Conditions: 48 h
# [1] = library stock concentration: 10 mM
# [2] = library stock concentration: 400 uM
# [3] = library stock concentration: 2 mM
# [4] = library stock concentration: 3.33 mM
# [5] = library stock concentration: 1 mM
# [6] = library stock concentration: 80 uM
smiles,measurement,setting,value
"c1ccc(-c2ccccn2)nc1 [2,2'-Bipyridyl]",percent Bodipy-positive cells,[1],58.9 ± 4%
O=C(O)c1ccc2c(c1)nc(Nc1cccc(Cl)c1)c1ccncc12,percent Bodipy-positive cells,[2],15.9 ± 2%
same,percent Bodipy-positive cells,[3],12.8 ± 0.41%
same,percent Bodipy-positive cells,[1],28.2 ± 2%
O=C(O)c1ccc2c(c1)nc(Nc1cccc(Cl)c1)c1ccncc12 [CX-4945 (Silmitasertib)],percent Bodipy-positive cells,[4],6.05 ± 0.83%
same,percent Bodipy-positive cells,[1],13.5 ± 3.3%
CC1(C)O[C@@H]2C[C@H]3[C@@H]4CCC5=CC(=O)C=C[C@]5(C)[C@H]4[C@@H](O)C[C@]3(C)[C@]2(C(=O)CO)O1,percent Bodipy-positive cells,[1],38.3 ± 5%
CC1(C)O[C@@H]2C[C@H]3[C@@H]4CCC5=CC(=O)C=C[C@]5(C)[C@H]4[C@@H](O)C[C@]3(C)[C@]2(C(=O)CO)O1 [Desonide],percent Bodipy-positive cells,[4],6.29 ± 1.7%
same,percent Bodipy-positive cells,[1],7.97 ± 0.081%
CCNC(=O)CCC/C=C\C[C@@H]1[C@@H](/C=C/[C@@H](O)CCc2ccccc2)[C@H](O)C[C@@H]1O [Bimatoprost],percent Bodipy-positive cells,[4],18.4 ± 12%
same,percent Bodipy-positive cells,[1],16 ± 4.4%
COC(=O)C1=C(C)NC(C)=C(C(=O)OC2CCCN(Cc3ccccc3)C2)C1c1cccc([N+](=O)[O-])c1 (stereo not drawn),percent Bodipy-positive cells,[1],27.7 ± 11%
COC(=O)C1=C(C)NC(C)=C(C(=O)OC2CCCN(Cc3ccccc3)C2)C1c1cccc([N+](=O)[O-])c1 (stereo not drawn) [Benidipine HCl],percent Bodipy-positive cells,[4],13 ± 2.6%
same,percent Bodipy-positive cells,[1],64.5 ± 18%
CCCCCC(O)C=CC1C=CC(=O)C1CCCCCCC(=O)O (stereo not drawn) [8-iso Prostaglandin A1],percent Bodipy-positive cells,[5],13.1 ± 1.6%
CCCCCC(O)C=CC1C=CC(=O)C1CCCCCCC(=O)O (stereo not drawn) [15-epi Prostaglandin A1],percent Bodipy-positive cells,[5],9.24 ± 6.4%
Cc1ccc(NC(=O)c2cccc(N(C)C)c2)cc1NC(=O)c1ccc(O)cc1,percent Bodipy-positive cells,[1],8.48 ± 0.69%
O=C1NCCc2[nH]c(-c3ccncc3)cc21,percent Bodipy-positive cells,[6],12.4 ± 3%
same,percent Bodipy-positive cells,[2],21.8 ± 4.8%
same,percent Bodipy-positive cells,[3],30.5 ± 6.3%
same,percent Bodipy-positive cells,[4],46.8 ± 22%
same,percent Bodipy-positive cells,[1],38.3 ± 7.2%
C[C@]12C[C@H](O)[C@H]3[C@@H](CCC4=CC(=O)CC[C@@]43C)[C@@H]1CC[C@@H]2C(=O)CO [Corticosterone],percent Bodipy-positive cells,,15.9 ± 3.7%
same,percent Bodipy-positive cells,library stock concentration: 5.8 mM,5.38 ± 1.2%
same,percent Bodipy-positive cells,[1],28.8 ± 5.3%
C[C@]12C[C@H](O)[C@H]3[C@@H](CCC4=CC(=O)CC[C@@]43C)[C@@H]1CC[C@@H]2C(=O)CO,percent Bodipy-positive cells,[1],5.04 ± 0.19%
O=C(Nc1cc2cc[nH]c2cn1)c1ccccc1,percent Bodipy-positive cells,[4],30.3 ± 6.3%
same,percent Bodipy-positive cells,[1],30.6 ± 4.6%
COc1ccc(S(=O)(=O)Nc2cccnc2Nc2ccc(O)cc2)cc1,percent Bodipy-positive cells,[6],9.31 ± 1.6%
same,percent Bodipy-positive cells,[2],16.9 ± 8.4%
same,percent Bodipy-positive cells,[3],13 ± 1.4%
same,percent Bodipy-positive cells,[4],30.8 ± 2.9%
same,percent Bodipy-positive cells,[1],58.2% and 39.2%
CC[C@H]1OC(=O)C[C@@H](O)[C@H](C)[C@@H](O[C@@H]2O[C@H](C)[C@@H](O[C@H]3C[C@@](C)(O)[C@@H](O)[C@H](C)O3)[C@H](N(C)C)[C@H]2O)[C@@H](CC=O)C[C@@H](C)C(=O)/C=C/C(C)=C/[C@@H]1CO[C@@H]1O[C@H](C)[C@@H](O)[C@@H](OC)[C@H]1OC [Tylosin tartrate],percent Bodipy-positive cells,[1],25.5 ± 5.7%
O=C(/C=C/c1ccc(O)c(O)c1)c1ccc(O)cc1O [Butein],percent Bodipy-positive cells,[4],45 ± 5.8%
same,percent Bodipy-positive cells,[1],57.7 ± 6.5%
CNS(=O)(=O)c1ccc(NC(=O)c2ccccc2C(=O)O)cc1 [Phthalysulfathiazole],percent Bodipy-positive cells,library stock concentration: 4.8 mM,16.3 ± 5.1%
O=C(CCCCCCC(=O)Nc1ccccc1)NO [Vorinostat],percent Bodipy-positive cells,[6],42.8 ± 3.8%
same,percent Bodipy-positive cells,[2],34.5 ± 13%
same,percent Bodipy-positive cells,[3],53.3 ± 3.3%
same,percent Bodipy-positive cells,[1],80.41 ± 0.1%
"O=C(CCCCCCC(=O)Nc1ccccc1)NO [Vorinostat (SAHA, MK0683)]",percent Bodipy-positive cells,[4],44 ± 2.1%
same,percent Bodipy-positive cells,[1],61.1 ± 6.2%
O=C(CCCCCCC(=O)Nc1ccccc1)NO,percent Bodipy-positive cells,[1],94.1 ± 2.6%
O=c1cc(-c2ccccc2)oc2cc(O)cc(O)c12 [Chrysin],percent Bodipy-positive cells,,17.6 ± 3.4%
same,percent Bodipy-positive cells,[4],12.7 ± 1.5%
same,percent Bodipy-positive cells,[1],26.9% and 44.9%
COc1ccc2c(c1)c(C1=C(c3c[nH]c4ccccc34)C(=O)NC1=O)cn2CCCN(C)C,percent Bodipy-positive cells,[5],10.6 ± 0.27%
same,percent Bodipy-positive cells,[4],21.1% and 16.6%
same,percent Bodipy-positive cells,[1],71.8 ± 0.33%
Clc1ccc2c(c1)C(N1CCNCC1)=Nc1ccccc1O2 [Amoxapine],percent Bodipy-positive cells,[1],95.22 ± 0.79%
CCCCC(CC)COC(=O)C(C#N)=C(c1ccccc1)c1ccccc1 (stereo not drawn),percent Bodipy-positive cells,[1],46.88 ± 0.21%
Nc1c2c(nc3ccccc13)CCCC2 [Tacrine (hydrochloride)],percent Bodipy-positive cells,[5],6.56 ± 0.4%
"Nc1c2c(nc3ccccc13)CCCC2 [9-Amino-1,2,3,4-tetrahydroacridine hydrochloride]",percent Bodipy-positive cells,[1],65.6 ± 6.5%
Nc1c2c(nc3ccccc13)CCCC2,percent Bodipy-positive cells,library stock concentration: 9.7 mM,22.4 ± 2.3%
Nc1c2c(nc3ccccc13)CCCC2 [Tacrine hydrochloride],percent Bodipy-positive cells,[1],20 ± 8.8%
CCCCCCCCCCCCCCCCOC[C@H](CO)OC(C)=O [Hexadecyl Acetyl Glycerol],percent Bodipy-positive cells,[5],10.8 ± 2.5%
NC[C@H]1CC[C@H](C(=O)Oc2ccc(CCC(=O)O)cc2)CC1,percent Bodipy-positive cells,[1],10.59 ± 0.09%
O=c1sn(-c2cccc3ccccc23)c(=O)n1Cc1ccccc1 [Tideglusib],percent Bodipy-positive cells,[6],6.53 ± 0.4%
same,percent Bodipy-positive cells,[2],4.69 ± 0.44%
same,percent Bodipy-positive cells,[3],29.4 ± 2.2%
same,percent Bodipy-positive cells,[1],51.6 ± 4.7%
Cc1ccc(NC2=CC(=O)c3sc(C)nc3C2=O)cc1 [Ryuvidine],percent Bodipy-positive cells,[1],79.9 ± 2%

# Rewritten as tab-separated lines: entries from further up
smiles	measurement	setting	value
CC1(C)O[C@@H]2C[C@H]3[C@@H]4CCC5=CC(=O)C=C[C@]5(C)[C@H]4[C@@H](O)C[C@]3(C)[C@]2(C(=O)CO)O1	percent Bodipy-positive cells	[1]	38.3 ± 5%
CCNC(=O)CCC/C=C\C[C@@H]1[C@@H](/C=C/[C@@H](O)CCc2ccccc2)[C@H](O)C[C@@H]1O [Bimatoprost]	percent Bodipy-positive cells	[4]	18.4 ± 12%
COC(=O)C1=C(C)NC(C)=C(C(=O)OC2CCCN(Cc3ccccc3)C2)C1c1cccc([N+](=O)[O-])c1 (stereo not drawn) [Benidipine HCl]	percent Bodipy-positive cells	[4]	13 ± 2.6%
same	percent Bodipy-positive cells	[1]	64.5 ± 18%
CCCCCC(O)C=CC1C=CC(=O)C1CCCCCCC(=O)O (stereo not drawn) [8-iso Prostaglandin A1]	percent Bodipy-positive cells	[5]	13.1 ± 1.6%
CCCCCC(O)C=CC1C=CC(=O)C1CCCCCCC(=O)O (stereo not drawn) [15-epi Prostaglandin A1]	percent Bodipy-positive cells	[5]	9.24 ± 6.4%
O=C1NCCc2[nH]c(-c3ccncc3)cc21	percent Bodipy-positive cells	[6]	12.4 ± 3%
same	percent Bodipy-positive cells	[1]	38.3 ± 7.2%
C[C@]12C[C@H](O)[C@H]3[C@@H](CCC4=CC(=O)CC[C@@]43C)[C@@H]1CC[C@@H]2C(=O)CO [Corticosterone]	percent Bodipy-positive cells	library stock concentration: 5.8 mM	5.38 ± 1.2%
same	percent Bodipy-positive cells	[1]	28.8 ± 5.3%
C[C@]12C[C@H](O)[C@H]3[C@@H](CCC4=CC(=O)CC[C@@]43C)[C@@H]1CC[C@@H]2C(=O)CO	percent Bodipy-positive cells	[1]	5.04 ± 0.19%
O=C(Nc1cc2cc[nH]c2cn1)c1ccccc1	percent Bodipy-positive cells	[4]	30.3 ± 6.3%
COc1ccc(S(=O)(=O)Nc2cccnc2Nc2ccc(O)cc2)cc1	percent Bodipy-positive cells	[6]	9.31 ± 1.6%
CC[C@H]1OC(=O)C[C@@H](O)[C@H](C)[C@@H](O[C@@H]2O[C@H](C)[C@@H](O[C@H]3C[C@@](C)(O)[C@@H](O)[C@H](C)O3)[C@H](N(C)C)[C@H]2O)[C@@H](CC=O)C[C@@H](C)C(=O)/C=C/C(C)=C/[C@@H]1CO[C@@H]1O[C@H](C)[C@@H](O)[C@@H](OC)[C@H]1OC [Tylosin tartrate]	percent Bodipy-positive cells	[1]	25.5 ± 5.7%
O=c1cc(-c2ccccc2)oc2cc(O)cc(O)c12 [Chrysin]	percent Bodipy-positive cells	[1]	26.9% and 44.9%
Clc1ccc2c(c1)C(N1CCNCC1)=Nc1ccccc1O2 [Amoxapine]	percent Bodipy-positive cells	[1]	95.22 ± 0.79%
Nc1c2c(nc3ccccc13)CCCC2 [Tacrine (hydrochloride)]	percent Bodipy-positive cells	[5]	6.56 ± 0.4%
Nc1c2c(nc3ccccc13)CCCC2 [Tacrine hydrochloride]	percent Bodipy-positive cells	[1]	20 ± 8.8%
Cc1ccc(NC2=CC(=O)c3sc(C)nc3C2=O)cc1 [Ryuvidine]	percent Bodipy-positive cells	[1]	79.9 ± 2%
